At least one peptide structure holds a part that was inferred or is arguable (an end, a ring closure or a residue).
Target: Insulin Receptor (Homo sapiens, UniProt P06213)
Assay: Insulin receptor binding assay (competition, scintillation proximity)

Chains of the proteins cited; added tags and fusions are not shown. Residues count along the entry.
UniProt P06213, 28-758 limits assumed: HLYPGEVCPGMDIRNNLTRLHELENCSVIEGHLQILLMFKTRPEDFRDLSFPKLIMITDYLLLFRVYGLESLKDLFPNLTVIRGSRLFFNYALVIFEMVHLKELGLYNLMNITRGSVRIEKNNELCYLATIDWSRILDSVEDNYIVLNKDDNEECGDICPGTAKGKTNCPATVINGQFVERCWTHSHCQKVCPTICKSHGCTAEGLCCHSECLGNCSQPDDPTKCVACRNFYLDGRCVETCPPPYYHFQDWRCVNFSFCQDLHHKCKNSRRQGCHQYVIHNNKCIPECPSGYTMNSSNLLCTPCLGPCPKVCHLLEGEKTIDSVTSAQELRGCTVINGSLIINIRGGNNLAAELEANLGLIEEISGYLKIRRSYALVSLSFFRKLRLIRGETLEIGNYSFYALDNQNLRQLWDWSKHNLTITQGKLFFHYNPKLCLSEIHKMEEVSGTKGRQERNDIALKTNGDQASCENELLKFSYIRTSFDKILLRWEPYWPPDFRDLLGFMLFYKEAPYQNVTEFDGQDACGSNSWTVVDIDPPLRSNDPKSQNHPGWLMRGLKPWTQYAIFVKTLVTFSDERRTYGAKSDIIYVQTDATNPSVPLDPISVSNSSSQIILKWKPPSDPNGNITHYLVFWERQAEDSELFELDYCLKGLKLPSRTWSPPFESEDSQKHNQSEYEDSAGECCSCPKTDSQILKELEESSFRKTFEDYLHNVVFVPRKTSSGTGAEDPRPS
UniProt P06213, 763-1382 partner limits assumed: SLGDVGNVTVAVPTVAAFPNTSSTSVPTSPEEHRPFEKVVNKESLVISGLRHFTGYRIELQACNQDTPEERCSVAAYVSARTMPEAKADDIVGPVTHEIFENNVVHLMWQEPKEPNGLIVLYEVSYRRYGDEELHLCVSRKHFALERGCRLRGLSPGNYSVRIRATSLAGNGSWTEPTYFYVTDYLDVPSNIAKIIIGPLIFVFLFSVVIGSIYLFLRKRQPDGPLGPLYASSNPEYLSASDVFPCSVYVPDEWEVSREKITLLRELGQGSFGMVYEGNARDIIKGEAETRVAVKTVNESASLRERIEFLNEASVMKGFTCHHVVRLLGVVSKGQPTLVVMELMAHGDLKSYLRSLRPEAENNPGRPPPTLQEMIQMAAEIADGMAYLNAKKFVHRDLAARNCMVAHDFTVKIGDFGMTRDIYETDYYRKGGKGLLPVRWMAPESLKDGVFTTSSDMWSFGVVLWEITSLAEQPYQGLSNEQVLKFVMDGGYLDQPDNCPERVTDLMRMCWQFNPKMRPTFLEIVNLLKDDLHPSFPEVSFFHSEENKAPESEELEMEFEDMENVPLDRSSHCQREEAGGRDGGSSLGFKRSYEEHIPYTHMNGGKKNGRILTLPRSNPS

## CC[C@H](C)[C@H](NC(=O)CN)C(=O)N[C@H](C(=O)N[C@@H](CC(=O)O)C(=O)N[C@@H](CCC(=O)O)C(=O)N[C@H]1CSSC[C@@H]2NC(=O)[C@H](CO)NC(=O)[C@H](CCCNC(=N)N)NC(=O)[C@H](Cc3ccccc3)NC(=O)[C@H](CSSC[C@H](NC(=O)[C@H](CC(C)C)NC(=O)[C@@H](NC(=O)[C@H](CCC(=O)O)NC(=O)[C@@H]3CCCN3C(=O)CN)[C@@H](C)O)C(=O)NCC(=O)N[C@@H](C)C(=O)N[C@@H](CCC(=O)O)C(=O)N[C@@H](CC(C)C)C(=O)N[C@@H](C(C)C)C(=O)N[C@@H](CC(=O)O)C(=O)N[C@@H](C)C(=O)N[C@@H](CC(C)C)C(=O)N[C@@H](Cc3ccc(O)cc3)C(=O)N[C@@H](CC(C)C)C(=O)N[C@@H](C(C)C)C(=O)N[C@H](C(=O)NCC(=O)N[C@@H](CC(=O)O)C(=O)N[C@@H](CCCNC(=N)N)C(=O)NCC(=O)N[C@@H](Cc3ccccc3)C(=O)N[C@@H](Cc3ccc(O)cc3)C(=O)N[C@@H](Cc3ccccc3)C(=O)N[C@@H](CC(N)=O)C(=O)N[C@@H](CCCCN)C(=O)N3CCC[C@H]3C(=O)N[C@H](C(N)=O)[C@@H](C)O)CSSC[C@@H](C(=O)N[C@@H](C)C(N)=O)NC(=O)[C@H](Cc3ccc(N)cc3)NC(=O)[C@H](CCSC)NC(=O)[C@H](CCC(=O)O)NC(=O)[C@H](CC(C)C)NC(=O)[C@H](CCCNC(=N)N)NC(=O)[C@H](CCCNC(=N)N)NC(=O)[C@H](CC(C)C)NC(=O)[C@H](CC(=O)O)NC2=O)NC1=O)C(C)C [IGF1(Y^B16L^B17)(p-NH2—F)^A19amide]
Compared with native insulin
  insulin receptor binding, in words: specifically binds to the insulin receptor

## CC[C@H](C)[C@H](NC(=O)CN)C(=O)N[C@H](C(=O)N[C@@H](CC(=O)O)C(=O)N[C@@H](CCC(=O)O)C(=O)N[C@H]1CSSC[C@@H]2NC(=O)[C@H](CO)NC(=O)[C@H](CCCNC(=N)N)NC(=O)[C@H](Cc3ccccc3)NC(=O)[C@H](CSSC[C@H](NC(=O)[C@H](CC(C)C)NC(=O)[C@H](Cc3c[nH]cn3)NC(=O)[C@H](CCC(N)=O)NC(=O)[C@H](CC(N)=O)NC(=O)[C@@H](NC(=O)[C@@H](N)Cc3ccccc3)C(C)C)C(=O)NCC(=O)N[C@@H](C)C(=O)N[C@@H](CCC(=O)O)C(=O)N[C@@H](CC(C)C)C(=O)N[C@@H](C(C)C)C(=O)N[C@@H](CC(=O)O)C(=O)N[C@@H](C)C(=O)N[C@@H](CC(C)C)C(=O)N[C@@H](Cc3ccc(O)cc3)C(=O)N[C@@H](CC(C)C)C(=O)N[C@@H](C(C)C)C(=O)N[C@H](C(=O)NCC(=O)N[C@@H](CC(=O)O)C(=O)N[C@@H](CCCNC(=N)N)C(=O)NCC(=O)N[C@@H](Cc3ccccc3)C(=O)N[C@@H](Cc3ccc(O)cc3)C(=O)N[C@@H](Cc3ccccc3)C(=O)N[C@@H](CC(N)=O)C(=O)N[C@@H](CCCCN)C(=O)N3CCC[C@H]3C(=O)N[C@H](C(N)=O)[C@@H](C)O)CSSC[C@@H](C(=O)N[C@@H](C)C(N)=O)NC(=O)[C@H](Cc3ccc(O)cc3)NC(=O)[C@H](CCSC)NC(=O)[C@H](CCC(=O)O)NC(=O)[C@H](CC(C)C)NC(=O)[C@H](CCCNC(=N)N)NC(=O)[C@H](CCCNC(=N)N)NC(=O)[C@H](CC(C)C)NC(=O)[C@H](CC(=O)O)NC2=O)NC1=O)C(C)C [IGF-1 A:ln B(1-5)-IGF-1 B(YL)(6-30)]
Table 9, IGF-1 receptor IC50 versus insulin receptor IC50
  Ratio: 88.8

Reference: patent US20110245164A1 (INDIANA UNIVERSITY RESEARCH AND TECHNOLOGY, published 2011)
